The list shows a part of the results. Many values rest on one well or one pass, so single values are uncertain.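 Cells were imaged in 1,536-well plates, and nuclei stained with an antibody against cleaved PARP were counted against all DNA-stained nuclei to give the apoptosis fraction. Screening doses were chosen to leave most cells alive, and resting and induced cleaved-PARP levels differ strongly between cell lines.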
Assays:
Assay in all cases: cleaved PARP positive nuclei fraction relative to DMSO control; melanoma cells; higher = more apoptosis
Conditions in all cases: library dose: low library concentration; 72 h
A101D = tested on: A101D
A2058 = tested on: A2058
C32 = tested on: C32
CBRC008 = tested on: CBRC008 (line from a melanoma biopsy)
CBRC014 = tested on: CBRC014 (line from a melanoma biopsy)
CBRC016 = tested on: CBRC016 (line from a melanoma biopsy)
CBRC017 = tested on: CBRC017 (line from a melanoma biopsy)
A375 = tested on: A375
CBRC013 = tested on: CBRC013 (line from a melanoma biopsy)

SMILES | cleaved PARP positive nuclei fraction (A101D) [%] | cleaved PARP positive nuclei fraction (A2058) [%] | cleaved PARP positive nuclei fraction (C32) [%] | cleaved PARP positive nuclei fraction (CBRC008) [%] | cleaved PARP positive nuclei fraction (CBRC014) [%] | cleaved PARP positive nuclei fraction (CBRC016) [%] | cleaved PARP positive nuclei fraction (CBRC017) [%] | cleaved PARP positive nuclei fraction (A375) [%] | cleaved PARP positive nuclei fraction (CBRC013) [%]
Cn1cc(C2=C(c3cn(C4CCN(Cc5ccccn5)CC4)c4ccccc34)C(=O)NC2=O)c2ccccc21 [Enzastaurin] + Cc1cc([N+](=O)[O-])ccc1NS(=O)(=O)c1cc(Cl)ccc1Cl [FH535] (first compound 0.8 µM, partner dose 1 µM) | 27.6 | 67.6 | 67.4 | 400 | 142 | 790 | 327 | – | –
Cn1cc(C2=C(c3cn(C4CCN(Cc5ccccn5)CC4)c4ccccc34)C(=O)NC2=O)c2ccccc21 [Enzastaurin] + CC(=O)O[C@@]12CO[C@@H]1C[C@H](O)[C@@]1(C)C(=O)[C@H](O)C3=C(C)[C@@H](OC(=O)[C@H](O)[C@@H](NC(=O)OC(C)(C)C)c4ccccc4)C[C@@](O)([C@@H](OC(=O)c4ccccc4)[C@H]21)C3(C)C [Docetaxel] (first compound 0.8 µM, partner dose 0.0001 µM) | 292 | 1410 | 71.9 | 544 | 139 | 379 | 198 | 7060 | –
C[C@]12O[C@H](C[C@]1(O)CO)n1c3ccccc3c3c4c(c5c6ccccc6n2c5c31)CNC4=O [Lestaurtinib] + C[As](C)SC[C@H](NC(=O)CC[C@H](N)C(=O)O)C(=O)NCC(=O)O [Darinaparsin] (first compound 0.004 µM, partner dose 0.4 µM) | 87 | 16.1 | 76.6 | 60.6 | 82.9 | 106 | 113 | 105 | –
CO[C@H]1C[C@@H]2CC[C@@H](C)[C@@](O)(O2)C(=O)C(=O)N2CCCC[C@H]2C(=O)O[C@H]([C@H](C)C[C@@H]2CC[C@@H](OCCO)[C@H](OC)C2)CC(=O)[C@H](C)/C=C(\C)[C@@H](O)[C@@H](OC)C(=O)[C@H](C)C[C@H](C)/C=C/C=C/C=C/1C [everolimus] + O=C(Oc1ccc([N+](=O)[O-])cc1)N1CCC(C(O)(c2ccc3c(c2)OCO3)c2ccc3c(c2)OCO3)CC1 [JZL184] (first compound 0.02 µM, partner dose 1 µM) | 41.3 | 311 | 190 | 125 | 83.6 | 53.1 | 263 | – | –
Nc1ccn([C@@H]2O[C@H](CO)[C@@H](O)C2(F)F)c(=O)n1 [gemcitabine] + Cc1cc(SCc2sc(-c3ccc(C(F)(F)F)c(F)c3)nc2C)ccc1OCC(=O)O [GW0742] (first compound 0.0004 µM, partner dose 2 µM) | 13.1 | 52.9 | 42 | 47.5 | 179 | 252 | 118 | – | –
N.N.[Cl][Pt][Cl] [cisplatin] + CCN(CC)CCCCNc1ncc2cc(-c3cc(OC)cc(OC)c3)c(NC(=O)NC(C)(C)C)nc2n1 [PD173074] (first compound 1.6 µM, partner dose 0.1 µM) | 7.21 | 76 | 84.2 | 325 | 124 | 62.1 | 93.6 | – | –
CN1CCN(c2ccc3nc(-c4c(N)c5c(F)cccc5[nH]c4=O)[nH]c3c2)CC1 [Dovitinib] + Cc1cc(SCc2sc(-c3ccc(C(F)(F)F)c(F)c3)nc2C)ccc1OCC(=O)O [GW0742] (first compound 0.1 µM, partner dose 2 µM) | 32.1 | 77.7 | 85.3 | 38.4 | 114 | 83.1 | 81.7 | – | –
COCC[n+]1c2c(n(Cc3cnccn3)c1C)C(=O)c1ccccc1C2=O + O=C(Oc1ccc([N+](=O)[O-])cc1)N1CCC(C(O)(c2ccc3c(c2)OCO3)c2ccc3c(c2)OCO3)CC1 [JZL184] (first compound 0.0004 µM, partner dose 1 µM) | 58.7 | 296 | 290 | – | 94.9 | 100 | 174 | 114 | 228
CC(C)C[C@H](NC(=O)[C@H](Cc1ccccc1)NC(=O)c1cnccn1)B(O)O [Bortezomib] + Cc1cc(SCc2sc(-c3ccc(C(F)(F)F)c(F)c3)nc2C)ccc1OCC(=O)O [GW0742] (first compound 0.001 µM, partner dose 2 µM) | 256 | 41.7 | 224 | 2060 | 189 | 388 | 650 | – | –
C[As](C)SC[C@H](NC(=O)CC[C@H](N)C(=O)O)C(=O)NCC(=O)O [Darinaparsin] + COc1ccc(-c2ccc3c(N4CCOCC4)nc(N4C[C@@H](C)O[C@@H](C)C4)nc3n2)cc1CO [KU0063794] (first compound 0.4 µM, partner dose 0.02 µM) | 157 | 85.1 | 128 | – | 86.1 | 183 | 76.4 | 63 | 109
O=C(O)c1ccc2c(c1)nc(Nc1cccc(Cl)c1)c1ccncc12 + C/C(O)=C(\C#N)C(=O)Nc1cc(Br)ccc1Br [LFM-A13] (first compound 0.4 µM, partner dose 2 µM) | 37.4 | 158 | 123 | 230 | 112 | 107 | 132 | – | –
C[C@]12O[C@H](C[C@]1(O)CO)n1c3ccccc3c3c4c(c5c6ccccc6n2c5c31)CNC4=O [Lestaurtinib] + C[C@@H](Oc1cc(-c2cnn(C3CCNCC3)c2)cnc1N)c1c(Cl)ccc(F)c1Cl [Crizotinib] (first compound 0.004 µM, partner dose 0.2 µM) | 141 | 254 | 153 | 105 | 100 | 66.9 | 104 | 58.6 | –
N.N.[Cl][Pt][Cl] [cisplatin] + O=C(O)c1ccc(-c2c[nH]c3ncc(-c4ccccc4)cc23)cc1C1CCCC1 [GSK650394] (first compound 1.6 µM, partner dose 0.16 µM) | 141 | 54.4 | 141 | 440 | 104 | 200 | 137 | 93.5 | 109
C[As](C)SC[C@H](NC(=O)CC[C@H](N)C(=O)O)C(=O)NCC(=O)O [Darinaparsin] + C/C(O)=C(\C#N)C(=O)Nc1cc(Br)ccc1Br [LFM-A13] (first compound 0.4 µM, partner dose 2 µM) | 73.8 | 65.1 | 115 | – | 114 | 86.2 | 82.8 | 72.8 | 569
C[As](C)SC[C@H](NC(=O)CC[C@H](N)C(=O)O)C(=O)NCC(=O)O [Darinaparsin] + COc1ccc(Cl)c(Nc2nc3ccccc3nc2NS(=O)(=O)c2cccc(NC(=O)C(C)(C)N)c2)c1 [XL147] (first compound 0.4 µM, partner dose 0.8 µM) | 335 | 90.4 | 74 | 101 | 137 | 123 | 120 | 158 | –
Cn1cc(C2=C(c3cn(C4CCN(Cc5ccccn5)CC4)c4ccccc34)C(=O)NC2=O)c2ccccc21 [Enzastaurin] + CC(C)(C)c1cnc(CSc2cnc(NC(=O)C3CCNCC3)s2)o1 [SNS-032] (first compound 0.8 µM, partner dose 0.01 µM) | 42.5 | 109 | 126 | 272 | 96.3 | 149 | 108 | 36.2 | 89.1
O=c1[nH]nc(Sc2ncc([N+](=O)[O-])s2)n1-c1ccc2c(c1)OCCO2 + C[C@]12O[C@H](C[C@]1(O)CO)n1c3ccccc3c3c4c(c5c6ccccc6n2c5c31)CNC4=O [Lestaurtinib] (first compound 0.2 µM, partner dose 0.004 µM) | 444 | 47.3 | 146 | 68.6 | 120 | 94.5 | 124 | 189 | –
C[C@]12O[C@H](C[C@]1(O)CO)n1c3ccccc3c3c4c(c5c6ccccc6n2c5c31)CNC4=O [Lestaurtinib] + Cn1c(Nc2ccc(C(F)(F)F)cc2)nc2cc(Oc3ccnc(-c4ncc(C(F)(F)F)[nH]4)c3)ccc21 [CHIR265] (first compound 0.004 µM, partner dose 0.08 µM) | 147 | 249 | 87.6 | 77.3 | 103 | 82.4 | 142 | 288 | –
Cn1cc(C2=C(c3cn(C4CCN(Cc5ccccn5)CC4)c4ccccc34)C(=O)NC2=O)c2ccccc21 [Enzastaurin] + N.N.[Cl][Pt][Cl] [cisplatin] (first compound 0.8 µM, partner dose 1.6 µM) | 92.3 | 60.4 | 137 | 64.5 | 81.9 | 89.6 | 110 | 57 | –
C#Cc1cccc(Nc2ncnc3cc(OCCOC)c(OCCOC)cc23)c1 [erlotinib] + Cc1cc(SCc2sc(-c3ccc(C(F)(F)F)c(F)c3)nc2C)ccc1OCC(=O)O [GW0742] (first compound 0.8 µM, partner dose 2 µM) | 118 | 48.1 | 122 | – | 101 | 99.6 | 106 | 96 | 589
Cc1cc(SCc2sc(-c3ccc(C(F)(F)F)c(F)c3)nc2C)ccc1OCC(=O)O + COc1cc2ncnc(Nc3ccc(Oc4ccccc4)cc3)c2cc1OC [SrcI1] (first compound 2 µM, partner dose 2 µM) | 101 | 119 | 115 | – | 96.2 | 128 | 86.5 | 127 | 46.8
C[C@]12O[C@H](C[C@]1(O)CO)n1c3ccccc3c3c4c(c5c6ccccc6n2c5c31)CNC4=O [Lestaurtinib] + Cc1nc(Nc2ncc(C(=O)Nc3c(C)cccc3Cl)s2)cc(N2CCN(CCO)CC2)n1 [dasatanib] (first compound 0.004 µM, partner dose 0.004 µM) | 99 | 21.8 | 71 | 128 | 86.1 | 93.4 | 209 | 99.9 | –
Cc1cc(Nc2cc(N3CCN(C)CC3)nc(Sc3ccc(NC(=O)C4CC4)cc3)n2)n[nH]1 [Tozasertib] + Cc1cc(SCc2sc(-c3ccc(C(F)(F)F)c(F)c3)nc2C)ccc1OCC(=O)O [GW0742] (first compound 0.006 µM, partner dose 2 µM) | 25.2 | 107 | 88.3 | 44.6 | 86.8 | 62.6 | 91.7 | – | –

2 records drawn at random from those above, as already listed:
SMILES | cleaved PARP positive nuclei fraction (A101D) [%] | cleaved PARP positive nuclei fraction (A2058) [%] | cleaved PARP positive nuclei fraction (C32) [%] | cleaved PARP positive nuclei fraction (CBRC008) [%] | cleaved PARP positive nuclei fraction (CBRC014) [%] | cleaved PARP positive nuclei fraction (CBRC016) [%] | cleaved PARP positive nuclei fraction (CBRC017) [%] | cleaved PARP positive nuclei fraction (A375) [%] | cleaved PARP positive nuclei fraction (CBRC013) [%]
N.N.[Cl][Pt][Cl] [cisplatin] + O=C(O)c1ccc(-c2c[nH]c3ncc(-c4ccccc4)cc23)cc1C1CCCC1 [GSK650394] (first compound 1.6 µM, partner dose 0.16 µM) | 141 | 54.4 | 141 | 440 | 104 | 200 | 137 | 93.5 | 109
COCC[n+]1c2c(n(Cc3cnccn3)c1C)C(=O)c1ccccc1C2=O + O=C(Oc1ccc([N+](=O)[O-])cc1)N1CCC(C(O)(c2ccc3c(c2)OCO3)c2ccc3c(c2)OCO3)CC1 [JZL184] (first compound 0.0004 µM, partner dose 1 µM) | 58.7 | 296 | 290 | – | 94.9 | 100 | 174 | 114 | 228

Source: the supplement of paper PMC4604168 (melanoma cell lines)
